The other results are listed elsewhere or left out. These are further read-outs of the screen, such as a control signal, another cell line or another target. No call is given for them. Compounds called inactive in the main read-out are mostly missing here. The note in brackets gives the kind of curve behind each potency; many fits are weak.
Assay: qHTS Assay for Lipid Storage Modulators in Drosophila S3 Cells;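 on cell number change: cells counted by Cell Tracker Red CMTPX staining in the red channel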
Conditions: BODIPY lipid droplet fluorescence, 18-24 h; for cell number change: measured here: cell count max response, cells fed with added oleic acid
How it was run: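 Drosophila S3 cells loaded with oleic acid (400 uM, as added) and compounds at several concentrations; lipid droplets imaged by 488-nm laser-scanning cytometry, 500–530 nm intensity and object ratio to cell channel. Percent activity normalized to 20 uM Triacsin C.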

[1] = measured here: cell number channel AC50, cells fed with added oleic acid
[2] = measured here: lipid fluorescence (Fed channel) AC50, cells fed with added oleic acid

| SMILES | cell number change [%] | AC50 [1] | AC50 [2] |
| --- | --- | --- | --- |
| Cc1ccc(NCc2nnc(SCC(=O)N(Cc3ccccc3)C(C)(C)C)o2)c(C)c1 | 5.56 |  |  |
| CCOC(=O)C1CCN(Cc2cc(=O)oc3c(C)c(C)ccc23)CC1 | 71.2 | 32.6 µM [rising, partial curve, poor fit] |  |
| CCN1CCN(c2ccc(S(=O)(=O)N3CCCCC3)cc2NC(=O)COc2ccccc2)CC1 | 40.1 | 13 µM [rising, partial curve] |  |
| CCC(C(=O)O/N=C(\N)c1ccc(C)cc1)c1ccccc1 (stereo unspecified) | 71.4 | 20.6 µM [rising, partial curve] |  |
| CCc1c(C)[nH]n(-c2ccc(Oc3ccccc3)c(S(=O)(=O)O)c2)c1=O | 1.68 |  |  |
| Cc1ccc(C)c(Cn2c(=O)n(CCC(=O)NCc3ccco3)c(=O)c3ccccc32)c1 | 51.5 | 18.4 µM [rising, partial curve] | 0.651 µM [rising, partial curve, poor fit] |
| COc1cc2c(cc1NC(=O)COC(=O)/C=C/c1ccc([N+](=O)[O-])cc1)oc1ccccc12 | 15.4 |  | 3.66 µM [rising, partial curve, poor fit] |
| O=S(=O)(NCCc1ccccc1)c1cccs1 | 24.8 | 0.00411 µM [rising, full curve, poor fit] | 29.1 µM [rising, single point] |
| CCN(CC(=O)Nc1ccc(OC)cc1)C(=O)CSCC(=O)Nc1cc(C)on1 | -2.85 |  |  |
| C=CCOC(=O)/C(=C\c1ccccc1)NC(=O)c1ccco1 | 7.82 |  | 18.4 µM [rising, partial curve] |
| O=C(NCc1ccccc1F)C1CCCN(S(=O)(=O)c2ccc(-n3cnnn3)cc2)C1 (stereo unspecified) |  | 0.146 µM [rising, full curve, poor fit] |  |
| CC1=NC(C(F)(F)F)(C(F)(F)F)C(C#N)=C(C)N1 | 15.8 |  | 25.9 µM [falling, partial curve] |
| O=C(Nc1ccc(Cl)cc1C(=O)NCc1cccnc1)c1ccco1 |  | 2.31 µM [rising, partial curve] | 2.59 µM [rising, partial curve] |
| O=C(COc1ccccc1Cl)N(Cc1ccco1)C1CCS(=O)(=O)C1 (stereo unspecified) | -4.26 |  | 29.1 µM [rising, single point] |
| O=C(c1ccc(Cl)cc1)N1CCN(c2ccnc3cc(Cl)ccc23)CC1 | -11.8 |  | 1.64 µM [falling, partial curve, poor fit] |
| Cc1cc(NC(=O)CN2CC(C)OC(C)C2)n(-c2nc3ccccc3s2)n1 (stereo unspecified) |  | 1.64 µM [rising, partial curve] | 1.84 µM [rising, full curve] |
| N#Cc1cccc(NC(=O)CN2C(=O)NC3(CCCCCC3)C2=O)c1 | -9.16 |  | 3.26 µM [falling, single point] |
| Cc1cc(C(=O)NC2CCCN(Cc3ccc(Cl)cc3)C2)c(C)o1 (stereo unspecified) | 51.9 | 23.1 µM [rising, single point] |  |
| CC(=O)c1ccc(OCC(O)CN2CCN(CCO)CC2)cc1 (stereo unspecified) | -11.8 |  | 0.13 µM [falling, full curve, poor fit] |
| C[C@H](NC(=O)[C@@H]1CSC2c3ccccc3C(=O)N21)C(=O)NC1CCCC1 (stereo partly specified) | -22.6 |  |  |
| O=C(COc1cc2oc(=O)c3c(c2cc1Cl)CCC3)NCCCn1ccnc1 | -39.5 | 23.1 µM [falling, partial curve] | 6.51 µM [falling, partial curve] |

An excerpt of these results, comma-delimited.
SMILES,cell number change [%],AC50 [1],AC50 [2]
CCN1CCN(c2ccc(S(=O)(=O)N3CCCCC3)cc2NC(=O)COc2ccccc2)CC1,40.1,"13 µM [rising, partial curve]",
COc1cc2c(cc1NC(=O)COC(=O)/C=C/c1ccc([N+](=O)[O-])cc1)oc1ccccc12,15.4,,"3.66 µM [rising, partial curve, poor fit]"
CCN(CC(=O)Nc1ccc(OC)cc1)C(=O)CSCC(=O)Nc1cc(C)on1,-2.85,,
C=CCOC(=O)/C(=C\c1ccccc1)NC(=O)c1ccco1,7.82,,"18.4 µM [rising, partial curve]"
N#Cc1cccc(NC(=O)CN2C(=O)NC3(CCCCCC3)C2=O)c1,-9.16,,"3.26 µM [falling, single point]"
C[C@H](NC(=O)[C@@H]1CSC2c3ccccc3C(=O)N21)C(=O)NC1CCCC1 (stereo partly specified),-22.6,,

(next part)

| SMILES | cell number change [%] | AC50 [1] | AC50 [2] |
| --- | --- | --- | --- |
| O=C(COC(=O)c1ccc(S(=O)(=O)N2CCCCC2)cc1)NCc1ccco1 | -2.44 |  |  |
| CC(=O)Nc1ccc(CC(=O)O)cc1 |  |  | 29.1 µM [rising, single point] |
| COc1cc(S(=O)(=O)NCCc2ccc3c(c2)OCO3)ccc1-n1cnnn1 | 24.1 | 0.092 µM [rising, full curve, poor fit] |  |
| Cc1sc2c(c1C)c(=O)nc1n2Cc2ccccc2-1 | 33.4 | 16.4 µM [rising, single point] |  |
| C=CCn1cc(CN2CCC(C(=O)Nc3ccc(Oc4cccnc4)cc3)CC2)c(C)n1 | 8.73 |  |  |
| C=CCn1c(SCC(=O)N2CCOCC2)nc2sc(C)c(C)c2c1=O | -2.38 |  |  |
| CCOc1ccccc1N1CC(C(=O)Nc2ccccc2CC)CC1=O (stereo unspecified) | -8.97 |  |  |
| COc1ccc(OCC(O)COc2ccc(OC)cc2)cc1 | 30.1 | 29.1 µM [rising, single point] |  |
| O=C(CSCCO)Nc1cccc2ccccc12 | -11.4 |  |  |
| O=C1N(c2ccccc2)c2ccccc2C1(O)C(F)(F)F (stereo unspecified) | 7.21 |  |  |
| O=C(COC(=O)C1CC1)Nc1c(Cl)cccc1C(F)(F)F | 3.5 |  |  |
| Cc1c(C)c2ccc(OCC(=O)N(C)C)c(C)c2oc1=O | -5.83 |  | 29.1 µM [rising, single point] |
| CN(c1ccccc1)S(=O)(=O)c1cccc(NC(=O)CSc2nnc(N)s2)c1 | 0.445 | 2.31 µM [rising, partial curve] |  |
| CCc1c(C)[nH]c2ccc(C)cc2c1=O | 11 |  | 29.1 µM [falling, single point] |
| COc1ccccc1NC(=O)OCC#CCOC(=O)Nc1ccccc1OC | 88.3 | 14.6 µM [rising, partial curve] | 18.4 µM [rising, partial curve] |
| COc1ccc(OC)c(NC(=O)[C@@H]2CCCN2C(=O)c2cccs2)c1 | -50 | 29.1 µM [falling, single point] |  |
| Cc1ccc(-c2csc3ncn(Cc4ccc(C(=O)O)cc4)c(=O)c23)cc1C |  | 0.00461 µM [rising, full curve, poor fit] |  |
| CCOc1ccccc1N(CC(=O)N1CCC(C)CC1)S(=O)(=O)c1ccc(C)cc1 | 4.99 |  | 5.8 µM [falling, full curve, poor fit] |
| CCc1ccccc1NC(=O)N[C@H](C(=O)O)C(C)CC (stereo partly specified) | -92.9 | 29.1 µM [falling, single point] |  |
| O=S1(=O)CCO[C@H]2Cc3ccccc3[C@H]2N1Cc1ccccc1F | -5.18 | 6.51 µM [rising, partial curve, poor fit] |  |
| O=Cc1cc2ccccc2nc1SCCCF | -14 | 0.82 µM [falling, single point] | 3.26 µM [falling, partial curve] |

| SMILES | cell number change [%] | AC50 [1] | AC50 [2] |
| --- | --- | --- | --- |
| CCOCC(=O)Nc1nc2ccc(OC)cc2s1 |  |  | 0.82 µM [falling, single point] |
| COc1ccc(OCCn2cc(/C=C(\C#N)C(=O)NCc3ccco3)c3ccccc32)cc1 | -20.7 |  |  |
| CC(=O)c1c(C)[nH]c(C(=O)OCC(=O)Nc2sc3c(c2C#N)CCC(C)C3)c1C (stereo unspecified) | 14.4 |  | 18.4 µM [rising, single point] |
| CCOC(=O)c1sc(NCC2CCCO2)nc1C (stereo unspecified) | 3.06 |  |  |
| CCNC(=S)N(CCc1c(C)[nH]c2ccc(Cl)cc12)Cc1cccnc1 | -11.7 |  |  |
| CCCCC(=O)Nc1nn(CC(C)C)c2nc3ccccc3cc12 | -12.8 | 6.51 µM [rising, single point] | 0.461 µM [rising, partial curve] |
| C/C(=N\N1CCN(c2ccccc2)CC1)c1cccs1 | 24.4 |  | 6.51 µM [rising, single point] |
| CN(C)c1ccc(C(=O)OCC(=O)N2CCOCC2)cc1 |  | 4.11 µM [rising, single point] | 6.51 µM [rising, single point] |
| CCOC(=O)c1c(C)[nH]c(C)c1C(=O)COC(=O)CCOc1ccccc1OC | -17.4 |  | 0.00461 µM [rising, full curve, poor fit] |
| CCCS(=O)(=O)N1CCCC(C(=O)NCCCOCC)C1 (stereo unspecified) | 13.7 |  | 6.51 µM [rising, partial curve, poor fit] |
| O=C1CSC(=S)N1/N=C/c1cc(Br)c(O)c(Br)c1 | -91.7 | 18.4 µM [falling, single point] | 11.6 µM [falling, partial curve] |
| CCOc1ccc(NC(=O)CN(C)C(=O)c2c(C)nn(-c3ccccc3)c2Cl)cc1OCC |  |  | 0.116 µM [rising, full curve, poor fit] |
| Brc1ccc(-c2nc(-c3cccnc3)no2)o1 | -14.5 |  |  |
| O=c1c2c(n3cnnc3n1C1CCCCC1)-c1ccccc1CC21CCCCC1 | 18.2 |  |  |
| O=C(CCNC(=O)c1ccco1)Nc1ccc(OC(F)F)c(Cl)c1 | 18.7 | 0.103 µM [rising, full curve, poor fit] | 6.51 µM [rising, single point] |
| CCCOC(=O)c1ccc(NC(=O)CCOc2ccccc2)cc1 | 65.7 | 6.51 µM [rising, partial curve] | 1.3 µM [rising, full curve] |
| OCCN1CCN(Cc2cc(Br)cc(Br)c2O)CC1 | -5.6 |  | 29.1 µM [falling, partial curve] |
| COc1cccc(NC(=O)CNC(=O)Cn2cnc3sc(C)c(C)c3c2=O)c1 | 14 |  | 1.64 µM [rising, partial curve, poor fit] |
| COc1ccc(-n2c(SCC(=O)Nc3ccc4c(c3)OCO4)nc3ccccc3c2=O)cc1 | 79.3 | 0.259 µM [rising, full curve] | 0.092 µM [rising, full curve, poor fit] |
| O=C1C2CCCCC2C(=O)N1c1nccs1 (stereo unspecified) | 5.29 |  | 2.59 µM [rising, full curve] |
| CC1CCCN(CCOCCOc2ccccc2-c2ccccc2)C1 (stereo unspecified) | -31.8 | 0.82 µM [falling, full curve] | 1.64 µM [falling, full curve] |

Reference: PubChem BioAssay AID2685 (National Center for Advancing Translational Sciences (NCATS), 2010)
